Article PMC9957399, “New Insights into the Inhibition of Hesperetin on Polyphenol Oxidase: Inhibitory Kinetics, Binding Characteristics, Conformational Change and Computational Simulation” (Foods, 2023)

Tested on: T1, PPO
T1 construct: purchased Worthington Biochemical Co. (Lakewood, CO, USA)
Assay: Fluorometric titration (fluorescence quenching of PPO)
Format: binding, mushroom
Method: Fluorescence spectra were measured at 298, 304 and 310 K by a fluorophotometer (F–7000, Hitachi, Tokyo, Japan). Briefly, the concentration of PPO was 2.0 μM, and the same volume of hesperetin was added into the PPO solution (2.0 mL) 10 times (0→25.0 μM). After each addition of hesperetin, 3 min was timed to equilibrate the mixed system. Then, the emission spectra (290–500 nm) were scanned at fixed excitation wavelength (280 nm).
To deduct the effect of internal filtration, all measured fluorescence data were processed through Formula (5):(5) FC=FMe^(A1+A2)/2 where FC and FM represent the corrected and detected fluorescence, respectively. A1 and A2 stand for the absorbance values of hesperetin at excitation and emission wavelengths, respectively.
The Stern–Volmer curves for PPO fluorescence quenched by hesperetin at each temperature were obtained through Equation (6):(6) F0/F=1+Kqτ0[Q]=1+Ksv[Q] where F and F0 denote the fluorescence intensity of PPO with and without hesperetin, respectively. Ksv, Kq and [Q] represent the fluorescence quenching constant, quenching rate constant and the concentration of hesperetin, respectively. τ0 represents the average fluorophore lifetime without hesperetin, and its value is usually equal to 10^−8 s.
Based on the following equation, the information about the interaction between hesperetin and PPO were obtained, including binding constant (Ka) and binding number (n):(7) logF0−F/F=nlogKa−nlog1/[Qt]−(F0−F)[Pt]/F0 where [Qt] and [Pt] stand for the concentrations of hesperetin and PPO. […] The n values at 298, 304 and 310 K were all equal to 1, implying that only one site existed when hesperetin interacted with PPO.
The values of ΔH°, ΔS° and ΔG°, which refer to enthalpy change, entropy change and free energy change, respectively, were obtained by the van ’t Hoff equations [42]:(8) logKa=−ΔH°/2.303RT+ΔS°/2.303R (9) ΔG°=ΔH°−TΔS° where T represents temperature; R represents gas constant, and its value is 8.314 J mol^−1 K^−1.

SMILES: COc1ccc([C@@H]2CC(=O)c3c(O)cc(O)cc3O2)cc1O [hesperetin, Hesperetin]
- ΔG° (298 K): -5.853 kcal/mol
- ΔG° (304 K): -6.006 kcal/mol
- ΔG° (310 K): -6.159 kcal/mol
- ΔS° (van 't Hoff, 298–310 K): 107.22 J mol^−1K^−1
